The target of this assay is T1, GFP-RhoGDI (green fluorescent protein-tagged RhoGDI) (UniProt P52565).
T1 sequence: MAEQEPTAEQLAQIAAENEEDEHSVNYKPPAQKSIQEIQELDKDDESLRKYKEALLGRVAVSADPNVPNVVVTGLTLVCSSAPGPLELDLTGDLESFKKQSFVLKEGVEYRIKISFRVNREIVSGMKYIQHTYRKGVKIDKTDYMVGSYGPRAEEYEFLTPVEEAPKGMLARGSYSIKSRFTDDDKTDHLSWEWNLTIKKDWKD
As to the kind of experiment: co-IP; XIAP-/- HCT116 cells expressing GFP-RhoGDI with HA-XIAP constructs; immunoprecipitated with anti-GFP antibody-conjugated agarose beads, blotted for XIAP / HA.

These are yes or no findings as the source states them, for the method shown. In cells and extracts the contact can be indirect. Binding can be weak; no strength is given. Tags and fused reporters may be left off the sequences shown.

Take “HA-XIAP ΔBIR (total BIR deletion) (human) (domain or fragment)”: the binding entry was “binds”. Regarding “HA-XIAP ΔRING (RING domain-deletion) (human) (domain or fragment)”, the binding entry is given as “binds weakly”.

The values above are taken from article PMC3330820.
